Measured values reported in patent publication US20040009511A1, “Identification of compounds which stimulate bone formation using a cell-based screening assay targeting BMP signaling” (priority 2002, published 2004).
Some entries share one result that the patent states for a list of compounds. At least one structure is not confirmed: it was looked up by name or label, or the drawing left a doubt. Where a SMILES comes first, the peptide text is derived from it. The star is where a group is joined. Cbz = O=C(OCc1ccccc1)*; OtBu = CC(C)(C)O*

Tests used:
Type in all cases: cell-based
[1] = tested on: 9×SBE-6×OSE2-OC-luc reporter construct; assay: Luciferase assay, 9×SBE-6×OSE2-OC-luc reporter construct, cells not specified; details: unrelated compounds, specificity test
Source text: (§1) An oligonucleotide containing 9 copies of Smad1 response element (9×SBE) and 6 copies of Cbfa1 response element (6×OSE2) was synthesized in the DNA laboratory at University of Texas Health Science Center at San Antonio. The osteocalcin basal promoter (OC, −155/+1) was amplified by Polymerase Chain Reaction (PCR) using mouse genomic DNA as a template and cloned into pGL3 vector. An 9×SBE-6×OSE2 oligonucleotide was cloned upstream of osteocalcin basal promoter.
C2C12 and 2T3 cells, in which 9×SBE-6×OSE2-OC-luc-reporter construct was stably transfected, were plated in 96-well culture plates at densities of 1×10^4 and 0.5×10^4 cells/well and cultured for 24 hours. The medium was changed to fresh medium supplemented with 2% FCS and different growth factors or hormone were added to culture medium for 24 hours or different compounds were added to culture medium for 2, 6, 12, 24 and 48 hours. The cell lysates were extracted and luciferase activities were determined by luciferase assay kit (Promega, Madison, Wis.) using a Luminometer.
Further, a reporter construct which contains multiple copies of both Smad1 (SBE) and Cbfa1 (OSE2) response elements (9×SBE-6×OSE2-OC-luc) was made.

[2] = tested on: 9×SBE-6×OSE2-OC-luc reporter construct in 2T3 C-17 cells; assay: Luciferase assay, 9×SBE-6×OSE2-OC-luc reporter stably transfected in 2T3 clone C-17; details: over the concentrations tested
Experimental: as §1
(§2) C2C12 and 2T3 cells were plated in 6-well culture plates at densities of 4×10^5 and 2×10^5 cells/well and cultured with DMEM or α minimal essential medium (α MEM) supplemented with 10% FCS for 24 hours. A 9×SBE-6×OSE2-OC-luc-reporter construct (2 μg/well) was co-transfected with pcDNA3 empty vector (0.2 mg/well) in C2C12 and 2T3 cells using lipofactamine plus reagents (Gibco/BRL). […]
(§3) C2C12 and 2T3 cells, in which 9×SBE-6×OSE2-OC-luc-reporter construct was stably transfected, were plated in 96-well culture plates at densities of 1×10^4 and 0.5×10^4 cells/well and cultured for 24 hours. […] The cell lysates were extracted and luciferase activities were determined by luciferase assay kit (Promega, Madison, Wis.) using a Luminometer.
(§4) At the end of the incubation, the cell lysates were extracted using lysis buffer and luciferase activities were measured using a luciferase assay kit (Promega).

[3] = tested on: 9×SBE-6×OSE2-OC-luc reporter construct in C2C12 clone C-10; assay: Luciferase assay, 9×SBE-6×OSE2-OC-luc reporter in C2C12 stable clone C-10; details: C2C12 clone C-10, dose-dependent
[4] = tested on: 9×SBE-6×OSE2-OC-luc reporter construct in C2C12 C-10-62 cells; assay: Luciferase assay, 9×SBE-6×OSE2-OC-luc reporter stably transfected in C2C12 clone C-10-62; details: over the concentrations tested
Experimental: as §1, §2, §3, §4

Compound	Effect on the reporter construct, fold increase [1]	Maximal effect, fold increase in luciferase activity [2]	Maximal response, fold increase in luciferase activity [3]	Maximal effect, fold increase in luciferase activity [4]
Nc1nc2c(nc(Br)n2[C@@H]2O[C@@H]3COP(=O)(O)O[C@H]3[C@H]2O)c(=O)[nH]1 [8-Bromo-cGMP, reference compound]	less than 1 fold	–	–	–
CCCCCCCCCCN(C)c1cc(CO)cc(NC(C)=O)c1 [ADMB, 3-(N-acetylamino)-5-(N-decyl-N-methylamino)-benzyl alcohol, reference compound]	less than 1 fold	–	–	–
CC[C@H](C)[C@H](NC(=O)OCc1ccccc1)C(=O)N[C@@H](CCC(=O)OC(C)(C)C)C(=O)N[C@@H](C)C(=O)N[C@H](C=O)CC(C)C [PS-I, reference compound] (Cbz-IE(OtBu)AL-aldehyde)	–	4-5 fold	6-8 fold	4-5 fold
CC(=O)CCCCn1c(=O)c2c(ncn2C)n(C)c1=O [pentoxifylline, reference compound]	less than 1 fold	–	–	–
PTH: Parathyroid Hormone	–	less than 1 fold	–	–
